{"sequences": {"note": "By UniProt entry, the sequences of proteins in these tests, tags left out. Chains listed by the source or under a name are the forms on record and can include a tag or linker.", "UniProt P36956, with tags, fused parts or gaps isoform P36956-4 limits assumed": "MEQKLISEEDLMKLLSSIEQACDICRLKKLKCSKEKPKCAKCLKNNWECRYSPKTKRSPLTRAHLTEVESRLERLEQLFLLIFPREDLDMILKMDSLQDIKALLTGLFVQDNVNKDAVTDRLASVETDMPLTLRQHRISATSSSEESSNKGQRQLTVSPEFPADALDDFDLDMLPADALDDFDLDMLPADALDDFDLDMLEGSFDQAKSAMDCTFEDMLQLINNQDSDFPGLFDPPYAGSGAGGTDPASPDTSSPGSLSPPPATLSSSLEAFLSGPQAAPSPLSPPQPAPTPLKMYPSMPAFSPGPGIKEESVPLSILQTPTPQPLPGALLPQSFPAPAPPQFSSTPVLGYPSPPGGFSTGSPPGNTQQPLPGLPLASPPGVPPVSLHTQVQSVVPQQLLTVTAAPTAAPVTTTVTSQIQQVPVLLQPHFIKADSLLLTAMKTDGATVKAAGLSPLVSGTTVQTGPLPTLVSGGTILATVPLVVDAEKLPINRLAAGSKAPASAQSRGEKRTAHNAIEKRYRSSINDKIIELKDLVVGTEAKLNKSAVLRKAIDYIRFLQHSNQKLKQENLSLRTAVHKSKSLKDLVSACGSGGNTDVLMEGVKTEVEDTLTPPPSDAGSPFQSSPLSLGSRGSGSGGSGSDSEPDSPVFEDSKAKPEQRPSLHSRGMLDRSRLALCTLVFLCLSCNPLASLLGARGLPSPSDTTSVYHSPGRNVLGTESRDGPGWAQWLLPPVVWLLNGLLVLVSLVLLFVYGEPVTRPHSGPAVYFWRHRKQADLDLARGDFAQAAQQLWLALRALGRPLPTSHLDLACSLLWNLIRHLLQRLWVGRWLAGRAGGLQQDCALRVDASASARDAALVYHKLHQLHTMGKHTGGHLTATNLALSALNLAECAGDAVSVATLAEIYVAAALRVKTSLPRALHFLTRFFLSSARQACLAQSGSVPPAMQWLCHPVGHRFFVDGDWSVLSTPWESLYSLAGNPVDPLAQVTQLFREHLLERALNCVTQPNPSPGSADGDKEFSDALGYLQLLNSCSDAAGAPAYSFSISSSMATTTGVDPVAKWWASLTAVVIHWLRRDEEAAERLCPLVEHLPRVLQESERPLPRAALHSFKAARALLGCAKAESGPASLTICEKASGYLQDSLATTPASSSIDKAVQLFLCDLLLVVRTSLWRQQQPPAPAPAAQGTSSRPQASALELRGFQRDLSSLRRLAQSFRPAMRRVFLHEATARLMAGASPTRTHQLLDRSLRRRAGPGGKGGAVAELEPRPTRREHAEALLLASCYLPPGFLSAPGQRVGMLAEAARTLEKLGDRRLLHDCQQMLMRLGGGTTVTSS"}, "source": "patent US20250082612A1", "about": "“SREBP-1 INHIBITOR AND PHARMACEUTICAL COMPOSITION FOR TREATING […]” (Jichi Medical University, priority 2021, published 2025)", "key": {"human SREBP-1c": {"target": "T1, human SREBP-1c (Homo sapiens, UniProt P36956)", "T1 construct": "expressed in transfected cells", "experiment": "Gal4-SREBP-1c luciferase reporter assay in HepG2 stable expression strain", "format": "cell-based", "excerpt": "A pcDNA3.1 (+)-Hyg vector (manufactured by Thermo Fisher Scientific, Inc. under the brand of Invitrogen) was inserted with DNA fragments of a firefly luciferase reporter cloned from a pGL3-Basic vector (manufactured by Promega Corporation), a pSV40-Renilla luciferase reporter cloned from a pRL-SV40 vector (manufactured by Promega Corporation), and a human SREBP-1c cloned from a pTK-HSV-hSREBP-1c, whereby a vector having a structure shown in FIG. 1 was constructed. The base sequence of the vector is set forth in SEQ ID NO: 2. In FIG. 1, Gal4-BP1 is a human SREBP-1c that is obtained by fusing sequences of the Gal4-DNA binding domain and the minimal VP16-AD to the N-terminal side. […]\nHepG2 cells, which are a cell line derived from human liver cancer, were cultured in advance to a confluency of 10% confluent in Dulbecco's Modified Eagle's Medium (DMEM) (containing 25 mM glucose, 100 units/mL penicillin, […] streptomycin sulfate, and 10 v/v % fetal bovine serum (FBS)) and then transfected with the vector obtained in (1) described above, by using a Lipofectamine 3000 transfection reagent (manufactured by Thermo Fisher Scientific, Inc. under the brand of Invitrogen), 5 whereby the vector was inserted into the genome. […] Next, a Reporter lysis buffer (Promega Corporation) was added to lyse the cells, and luciferase activity was measured with a luminometer. […]"}, "human SREBP-2": {"target": "T2, human SREBP-2 (Homo sapiens, UniProt Q12772)", "T2 construct": "expressed in transfected cells", "experiment": "Gal4-SREBP-2 luciferase reporter assay in HepG2 stable expression strain", "format": "cell-based", "details": "EPA 100 or 300 μM, 25HCho 30 μM in culture medium; 24 hours; vs DMSO", "excerpt": "In order to exclude compounds such as cholesterol and 25-hydroxycholesterol, which have an inhibitory action on both SREBP-1 and SREBP-2, first, a vector having the structure shown in FIG. 3 was constructed using the same method as in “1.” described above, except that a DNA fragment of human SREBP-2 cloned from pTK-HSVhSREBP-2 was used instead of the DNA fragment of human SREBP-1c. The base sequence of the vector is set forth in SEQ ID NO: 3. In FIG. 3, Gal4-BP2 is a human SREBP-2 that is obtained by fusing sequences of the Gal4-DNA binding domain and the minimal VP16-AD to the N-terminal side.\na stable expression strain of HepG2, which stably expressed firefly luciferase, was established using the same method as in “1. (2)” described above, except that the vector obtained in “2. (1)” described above was used. […] Next, a Reporter lysis buffer (Promega Corporation) was added to lyse the cells, and luciferase activity was measured with a luminometer. […]\nAmong the 39 kinds of compounds, 23 kinds of compounds were selected by searching the PAINS database (https://www.rdkit.org/docs/source/rdkit. Chem.rdfiltercatalog.html) and excluding, from targets of interest, compounds for which non-specific action had been reported. […] It is noted that the SREBP-1 inhibition rate and the SREBP-2 inhibition rate in the reporter assay were calculated using the following method. […]"}}, "note": "For at least one compound, name, drawing or mass did not settle the structure."}
{"smiles": "CC/C=C\\C/C=C\\C/C=C\\C/C=C\\C/C=C\\CCCC(=O)O", "note": "[EPA, eicosapentaenoic acid]", "values": [{"measurement": "concentration at which the inhibitory action on SREBP-1 is exhibited", "setting": "human SREBP-1c", "result": "about 20 μM"}, {"measurement": "luciferase activity (SREBP-1 reporter, FIG. 2)", "setting": "human SREBP-1c; EPA 100 or 300 μM, OA 300 μM, Cho 100 μM, 25HCho 30 μM in culture medium, 24 hours, vs DMSO", "result": "luciferase activity was reduced"}, {"measurement": "luciferase activity (SREBP-2 reporter, FIG. 4)", "setting": "human SREBP-2", "result": "luciferase luminescence was observed"}]}
